# In the supplement of paper PMC10032668:
# By UniProt entry, the sequences of proteins in these tests, tags left out.
# TUBB4A, P04350, UniProt P04350, whole entry: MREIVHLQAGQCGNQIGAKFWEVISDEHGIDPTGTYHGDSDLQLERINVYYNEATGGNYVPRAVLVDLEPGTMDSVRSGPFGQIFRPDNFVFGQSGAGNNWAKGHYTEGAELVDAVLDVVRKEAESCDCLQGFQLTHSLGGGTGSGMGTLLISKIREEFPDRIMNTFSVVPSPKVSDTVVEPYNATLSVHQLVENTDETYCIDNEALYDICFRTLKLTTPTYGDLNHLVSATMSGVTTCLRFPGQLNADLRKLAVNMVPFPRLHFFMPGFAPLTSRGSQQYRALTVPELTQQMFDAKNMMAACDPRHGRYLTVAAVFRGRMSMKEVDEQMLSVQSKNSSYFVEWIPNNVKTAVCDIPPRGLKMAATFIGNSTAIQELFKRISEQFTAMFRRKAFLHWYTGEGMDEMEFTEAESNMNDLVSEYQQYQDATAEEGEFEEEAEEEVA
# TUBB6, Q9BUF5, UniProt Q9BUF5, whole entry: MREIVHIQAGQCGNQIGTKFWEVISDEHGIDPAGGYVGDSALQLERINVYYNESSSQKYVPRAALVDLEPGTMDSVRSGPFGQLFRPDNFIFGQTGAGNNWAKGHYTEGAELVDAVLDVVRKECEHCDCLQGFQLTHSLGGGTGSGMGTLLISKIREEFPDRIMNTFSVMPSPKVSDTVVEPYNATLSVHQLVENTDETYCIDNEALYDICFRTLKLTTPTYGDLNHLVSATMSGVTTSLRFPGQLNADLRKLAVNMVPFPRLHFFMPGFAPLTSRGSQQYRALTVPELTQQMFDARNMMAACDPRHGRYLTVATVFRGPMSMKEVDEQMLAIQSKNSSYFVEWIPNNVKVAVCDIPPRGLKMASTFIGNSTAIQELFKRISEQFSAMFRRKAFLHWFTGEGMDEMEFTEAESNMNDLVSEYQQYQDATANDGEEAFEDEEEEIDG
# Some of the results follow. The list holds hits alone, and they repeat only in part.
# Columns and labels:
# Experiment in all cases: PRISMA enrichment of interactor (LFQ) in peptide spot vs all other peptide spots (log2 fold change); higher = stronger / more specific binding of the interactor to the peptide
# ADNP, Q9H2P0 = target: ADNP, Q9H2P0
# Protocol: (§1)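 PRISMA: 15-aa overlapping tiles (offset 8 aa) of 60 microproteins, plus SOS1/GLUT1 control peptides, were spot-synthesized on cellulose membranes in triplicate. Membranes were incubated with benzonase-treated HEK293T lysate, and bound proteins were identified by LC-MS/MS with LFQ. Enrichment is the log2 fold change of each protein in one spot versus all other spots. Only interactors passing the significance cutoff are listed.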
# BTAF1, O14981 = target: BTAF1, O14981
# Protocol: as §1
# CASP14, P31944 = target: CASP14, P31944
# Protocol: as §1
# CCDC59, Q9P031 = target: CCDC59, Q9P031
# Protocol: as §1
# CHTF18, Q8WVB6 = target: CHTF18, Q8WVB6
# Protocol: as §1
# CHTOP, Q9Y3Y2 = target: CHTOP, Q9Y3Y2
# Protocol: as §1
# CLSPN, Q9HAW4 = target: CLSPN, Q9HAW4
# Protocol: as §1
# CNOT11, Q9UKZ1 = target: CNOT11, Q9UKZ1
# Protocol: as §1
# DECR1, Q16698 = target: DECR1, Q16698
# Protocol: as §1
# DNAJB6, O75190 = target: DNAJB6, O75190
# Protocol: as §1
# ECT2, Q9H8V3 = target: ECT2, Q9H8V3
# Protocol: as §1
# EDF1, O60869 = target: EDF1, O60869
# Protocol: as §1
# ERLIN1, O75477 = target: ERLIN1, O75477
# Protocol: as §1
# FAM136A, Q96C01 = target: FAM136A, Q96C01
# Protocol: as §1
# HDGFL2, Q7Z4V5 = target: HDGFL2, Q7Z4V5
# Protocol: as §1
# HNRNPDL, O14979 = target: HNRNPDL, O14979
# Protocol: as §1
# HNRNPF, P52597 = target: HNRNPF, P52597
# Protocol: as §1
# IDH3B, O43837 = target: IDH3B, O43837
# Protocol: as §1
# IST1, P53990 = target: IST1, P53990
# Protocol: as §1
# KCTD12, Q96CX2 = target: KCTD12, Q96CX2
# Protocol: as §1
# LCLAT1, Q6UWP7 = target: LCLAT1, Q6UWP7
# Protocol: as §1
# MACF1 = target: MACF1
# Protocol: as §1
# MAP7D1, Q3KQU3 = target: MAP7D1, Q3KQU3
# Protocol: as §1
# MAP7D3, Q8IWC1 = target: MAP7D3, Q8IWC1
# Protocol: as §1
# MED20, Q9H944 = target: MED20, Q9H944
# Protocol: as §1
# MXRA7, P84157 = target: MXRA7, P84157
# Protocol: as §1
# NOP2, P46087 = target: NOP2, P46087
# Protocol: as §1
# NOP53, Q9NZM5 = target: NOP53, Q9NZM5
# Protocol: as §1
# OBSL1, O75147 = target: OBSL1, O75147
# Protocol: as §1
# PRPF4, O43172 = target: PRPF4, O43172
# Protocol: as §1
# ADRM1, Q16186 = target: ADRM1, Q16186
# Protocol: as §1
# ALDH18A1, P54886 = target: ALDH18A1, P54886
# Protocol: as §1
# ATP2A2, P16615 = target: ATP2A2, P16615
# Protocol: as §1
# ATXN10, Q9UBB4 = target: ATXN10, Q9UBB4
# Protocol: as §1
# CUL4A, Q13619 = target: CUL4A, Q13619
# Protocol: as §1
# EIF3A, Q14152 = target: EIF3A, Q14152
# Protocol: as §1
# EIF4E, P06730 = target: EIF4E, P06730
# Protocol: as §1
# MRPL4, Q9BYD3 = target: MRPL4, Q9BYD3
# Protocol: as §1
# MRPL50, Q8N5N7 = target: MRPL50, Q8N5N7
# Protocol: as §1
# NAP1L1, P55209 = target: NAP1L1, P55209
# Protocol: as §1
# PTCD3, Q96EY7 = target: PTCD3, Q96EY7
# Protocol: as §1
# RBM8A, Q9Y5S9 = target: RBM8A, Q9Y5S9
# Protocol: as §1
# SMARCA5, O60264 = target: SMARCA5, O60264
# Protocol: as §1
# SMPD4, Q9NXE4 = target: SMPD4, Q9NXE4
# Protocol: as §1
# TFIP11, Q9UBB9 = target: TFIP11, Q9UBB9
# Protocol: as §1
# TOP2A, P11388 = target: TOP2A, P11388
# Protocol: as §1
# TUBB4A, P04350 = target: TUBB4A, P04350
# Protocol: as §1
# TUBB6, Q9BUF5 = target: TUBB6, Q9BUF5
# Protocol: as §1
# WDR46, O15213 = target: WDR46, O15213
# Protocol: as §1
binder,measurement,setting,value
VFEELLSQWDAALKS [RP11-140K17.3],PRISMA enrichment of interactor (log2),"ADNP, Q9H2P0",4.57
same,PRISMA enrichment of interactor (log2),"BTAF1, O14981",4.23
same,PRISMA enrichment of interactor (log2),"CASP14, P31944",4.27
same,PRISMA enrichment of interactor (log2),"CCDC59, Q9P031",4.53
same,PRISMA enrichment of interactor (log2),"CHTF18, Q8WVB6",4.71
same,PRISMA enrichment of interactor (log2),"CHTOP, Q9Y3Y2",5.1
same,PRISMA enrichment of interactor (log2),"CLSPN, Q9HAW4",7.27
same,PRISMA enrichment of interactor (log2),"CNOT11, Q9UKZ1",6.04
same,PRISMA enrichment of interactor (log2),"DECR1, Q16698",8.04
same,PRISMA enrichment of interactor (log2),"DNAJB6, O75190",6.01
same,PRISMA enrichment of interactor (log2),"ECT2, Q9H8V3",4.39
same,PRISMA enrichment of interactor (log2),"EDF1, O60869",5.18
same,PRISMA enrichment of interactor (log2),"ERLIN1, O75477",4.5
same,PRISMA enrichment of interactor (log2),"FAM136A, Q96C01",5.03
same,PRISMA enrichment of interactor (log2),"HDGFL2, Q7Z4V5",4.47
same,PRISMA enrichment of interactor (log2),"HNRNPDL, O14979",4.92
same,PRISMA enrichment of interactor (log2),"HNRNPF, P52597",5.7
same,PRISMA enrichment of interactor (log2),"IDH3B, O43837",5.26
same,PRISMA enrichment of interactor (log2),"IST1, P53990",4.73
same,PRISMA enrichment of interactor (log2),"KCTD12, Q96CX2",7.14
same,PRISMA enrichment of interactor (log2),"LCLAT1, Q6UWP7",8.26
same,PRISMA enrichment of interactor (log2),MACF1,6.02
same,PRISMA enrichment of interactor (log2),"MAP7D1, Q3KQU3",5.46
same,PRISMA enrichment of interactor (log2),"MAP7D3, Q8IWC1",5.18
same,PRISMA enrichment of interactor (log2),"MED20, Q9H944",6.83
same,PRISMA enrichment of interactor (log2),"MXRA7, P84157",3.9
same,PRISMA enrichment of interactor (log2),"NOP2, P46087",4.65
same,PRISMA enrichment of interactor (log2),"NOP53, Q9NZM5",4.91
same,PRISMA enrichment of interactor (log2),"OBSL1, O75147",4.62
same,PRISMA enrichment of interactor (log2),"PRPF4, O43172",5.64
ASWVSRTSPADVAGP [RP11-432J24.5_2],PRISMA enrichment of interactor (log2),"ADNP, Q9H2P0",5.54
same,PRISMA enrichment of interactor (log2),"ADRM1, Q16186",4.96
same,PRISMA enrichment of interactor (log2),"ALDH18A1, P54886",4.45
same,PRISMA enrichment of interactor (log2),"ATP2A2, P16615",4.58
same,PRISMA enrichment of interactor (log2),"ATXN10, Q9UBB4",8.8
same,PRISMA enrichment of interactor (log2),"CHTOP, Q9Y3Y2",6.43
same,PRISMA enrichment of interactor (log2),"CUL4A, Q13619",3.97
same,PRISMA enrichment of interactor (log2),"EIF3A, Q14152",5.19
same,PRISMA enrichment of interactor (log2),"EIF4E, P06730",5.27
same,PRISMA enrichment of interactor (log2),"MRPL4, Q9BYD3",4.1
same,PRISMA enrichment of interactor (log2),"MRPL50, Q8N5N7",5.5
same,PRISMA enrichment of interactor (log2),"NAP1L1, P55209",5.7
same,PRISMA enrichment of interactor (log2),"PTCD3, Q96EY7",5.72
same,PRISMA enrichment of interactor (log2),"RBM8A, Q9Y5S9",7.98
same,PRISMA enrichment of interactor (log2),"SMARCA5, O60264",4.56
same,PRISMA enrichment of interactor (log2),"SMPD4, Q9NXE4",7.5
same,PRISMA enrichment of interactor (log2),"TFIP11, Q9UBB9",7.11
same,PRISMA enrichment of interactor (log2),"TOP2A, P11388",7.46
same,PRISMA enrichment of interactor (log2),"TUBB4A, P04350",5.24
same,PRISMA enrichment of interactor (log2),"TUBB6, Q9BUF5",4.46
same,PRISMA enrichment of interactor (log2),"WDR46, O15213",6.4

# Three entries from above, tab-delimited:
binder	measurement	setting	value
ASWVSRTSPADVAGP [RP11-432J24.5_2]	PRISMA enrichment of interactor (log2)	SMPD4, Q9NXE4	7.5
same	PRISMA enrichment of interactor (log2)	TFIP11, Q9UBB9	7.11
same	PRISMA enrichment of interactor (log2)	TOP2A, P11388	7.46
